# In article PMC10423226, “Identification of a drug binding pocket in TMEM16F calcium-activated ion channel and lipid scramblase” (Nature Communications, 2023):
# Results are given in words; binding and its absence hold for the method and conditions named. Some entries that bind do so weakly or less than the wild type.
# B1: TMEM16F (natural protein, UniProt Q6P9J9 1-911, looked up)
# chain: MQMMTRKVLLNMELEEDDDEDGDIVLENFDQTIVCPTFGSLENQQDFRTPEFEEFNGKPDSLFFTDGQRRIDFILVYEDESKKENNKKGTNEKQKRKRQAYESNLICHGLQLEATRSVSDDKLVFVKVHAPWEVLCTYAEIMHIKLPLKPNDLKTRSPFGNLNWFTKVLRVNESVIKPEQEFFTAPFEKSRMNDFYILDRDSFFNPATRSRIVYFILSRVKYQVMNNVNKFGINRLVSSGIYKAAFPLHDCRFNYESEDISCPSERYLLYREWAHPRSIYKKQPLDLIRKYYGEKIGIYFAWLGYYTQMLLLAAVVGVACFLYGYLDQDNCTWSKEVCDPDIGGQILMCPQCDRLCPFWRLNITCESSKKLCIFDSFGTLIFAVFMGVWVTLFLEFWKRRQAELEYEWDTVELQQEEQARPEYEAQCNHVVINEITQEEERIPFTTCGKCIRVTLCASAVFFWILLIIASVIGIIVYRLSVFIVFSTTLPKNPNGTDPIQKYLTPQMATSITASIISFIIIMILNTIYEKVAIMITNFELPRTQTDYENSLTMKMFLFQFVNYYSSCFYIAFFKGKFVGYPGDPVYLLGKYRSEECDPGGCLLELTTQLTIIMGGKAIWNNIQEVLLPWVMNLIGRYKRVSGSEKITPRWEQDYHLQPMGKLGLFYEYLEMIIQFGFVTLFVASFPLAPLLALVNNILEIRVDAWKLTTQFRRMVPEKAQDIGAWQPIMQGIAILAVVTNAMIIAFTSDMIPRLVYYWSFSIPPYGDHTYYTMDGYINNTLSVFNITDFKNTDKENPYIGLGNYTLCRYRDFRNPPGHPQEYKHNIYYWHVIAAKLAFIIVMEHIIYSVKFFISYAIPDVSKITKSKIKREKYLTQKLLHESHLKDLTKNMGIIAERIGGTVDNSVRPKLE
# modifications: glycans on the extracellular loops
# notes: Sample in lipid nanodiscs (MSP2N2, SoyPC) with PIP2 and 4 mM CaCl2; also called mTMEM16F; TMEM16F dimer; source: HEK293s cells, extracted and purified in DDM/CHS, reconstituted in MSP2N2-SoyPC nanodiscs, FPLC
# Target: TMEM16F (mouse (printed as mTMEM16F, for the cell lines)) (UniProt Q6P9J9)
# Assay: cryo-EM structure; TMEM16F in MSP2N2-SoyPC nanodiscs with PIP2 and 4 mM CaCl2, without drug or with 50 uM niclosamide or 100 uM 1PBC; no C2 symmetry imposed; both purified
binder,measurement,value
B1,binding,binds
